The values below are quoted from earlier work in patent US20250375396A1 (priority 2016, published 2025).

The structures appear in SMILES notation. Structures can show the parent of a compound that is named as a salt.

For this data set the following is noted: conjugated acid amine.

For the compound `COc1cc2c(cc1OC)C(=O)C(CC1CCN(Cc3ccccc3)CC1)C2` (stereo not shown) [Donepezil HCl], the “Equilibrium Constant of Acid Amine (pKa(acid amine))” value is recorded as 8.6.
